# Source: article doi:10.1101/2023.01.13.523841
# B1: ALFIN LIKE 3 (AL3), BiFC fusion in pUC-SPYNE (nYFP-X) (protein, UniProt Q9M2B4 1-250)
# chain: MEGGAALYNPRTVEEVFKDFKGRRTAIVKALTTDVQEFYQQCDPEKENLCLYGLPNEEWEVNLPAEEVPPELPEPALGINFARDGLSEKEWLSLVAIHSDAWLLSVSFYFGSRFSFHKEERKRLFNMINDVPTIFEVVTGMAKAKDKSSAANQNGNKSKSNSKVRTSEGKSSKTKQPKEEDEEIDEDDEDDHGETLCGACGDSDGADEFWICCDLCEKWFHGKCVKITPARAEHIKQYKCPSCSNKRARA
# Biological target: FUG1, BiFC fusion in pUC-SPYCE (cYFP-X) (Arabidopsis thaliana)
# Experiment: split reporter
binder,measurement,value
B1,binding,binds

# Results are given in words; binding and its absence hold for the method and conditions named. In cells and extracts the contact can be indirect. Binding calls can cover weak binding; strength is not graded here. Where a sequence is shown, tags or fusion partners need not be part of it.
